In patent publication US8841077B2, “Biomarkers for amyotrophic lateral sclerosis and methods using the same” (Massachusetts General Hospital, priority 2006, dated 2014):
Structures can show the parent of a compound that is named as a salt.

Test: Metabolomic profiling (GC-MS/LC-MS) of CSF samples, ALS subjects vs control subjects (Example 1; Tables 3, 4)
Format: in vivo, human
[1] = CSF, ALS mean as compared to control mean, T-tests of ALS vs. Controls
[2] = CSF, ALS mean as compared to the control mean
[3] = CSF, mean in ALS samples as compared to control samples
[4] = CSF, mean in ALS samples vs control samples, T-tests

Molecule	% change in ALS [1]	% change in ALS [2]	Increase (+) or Decrease (−) in ALS [3]	Increase (+) or Decrease (−) in ALS [4]	% change in ALS (human, in vivo)	Increase (+) or Decrease (−) in ALS (human, in vivo)
N[C@@H](Cc1ccc(O)cc1)C(=O)O [Tyrosine - 35, Tyrosine]	19%	19%	+	+		
CC(C)[C@H](N)C(=O)O [Valine - 9, Valine]	34%	34%	+	+		
Nc1ccn([C@@H]2O[C@H](CO)[C@@H](O)[C@H]2O)c(=O)n1 [Cytidine - 35, Cytidine]	−9%	−9%	−	−		
OC[C@H]1O[C@@H](n2cnc3c(O)ncnc32)[C@H](O)[C@@H]1O [Inosine - 35, Inosine]	2%	2%	+	+		
CC(O)C(=O)O (stereo not drawn) [Lactate (previously: Metaboiite-3316) - 35]	17%			+		
N[C@@H](CCC(=O)O)C(=O)O [Glutamic acid - 9, Glutamic acid]	8%	8%	+	+		
CCCCCC/C=C\CCCCCCCC(=O)O [Palmitoleic acid - 9, Palmitoleic acid]	−15%	−15%	−	−		
OC[C@@H](O)[C@H](O)[C@H](O)[C@@H](O)CO [Dulcitol - 9, Dulcitol]	4%	4%	+	+		
CCCCCCCCCC(=O)O [Decanoic acid - 9, Decanoic acid]	−6%	−6%	−	−		
O=C(O)C(O)Cc1ccc(O)cc1 (stereo not drawn) [alpha-4-dihydroxybenzenepropanoic acid - 35]	−38%	−38%	−	−		
O=C(O)CC(O)(CC(=O)O)C(=O)O [Citric acid - 9, Citric acid]	12%	12%	+	+		
NC(=O)CC[C@H](N)C(=O)O [Glutamine - 35, Glutamine]	6%	6%	+	+		
alpha-Hydroxyisobutyric acid-tms [alpha-Hydroxyisobutyric acid-tms - 9]	27%	27%	+	+		
OC[C@@]1(O)OC[C@H](O)[C@@H](O)[C@@H]1O [alpha-L-sorbopyranose - 9, alpha-L-sorbopyranose]	7%	7%	+	+		
CCCCCCCCCCCCCCCCO [1-Hexadecanol-9, 1-Hexadecanol]	3%			+		
CC(O)(CC(=O)O)CC(=O)O [3-hydroxy-3-methylglutarate - 35, 3-hydroxy-3-methylglutarate]	1%	1%	+	+		
N[C@@H](CO)C(=O)O [Serine - 9, Serine]	−11%	−11%	−	−		
O=C(O)CCCCC1CCSS1 (stereo not drawn) [Lipoate - 9, Lipoate]	−2%	−2%	−	−		
CC(=O)NCCCC(=O)O [4-acetamidobutyric acid - 35, 4-acetamidobutyric acid]	−4%	−4%	−	−		
Nc1ncnc2c1ncn2[C@@H]1O[C@H](CO)[C@@H](O)[C@H]1O [Adenosine - 35, Adenosine]	16%	16%	+	+		
NCCOP(=O)(O)O [o-phosphoethanolamine - 9, o-phosphoethanolamine]	11%	11%	+	+		
NC(CCCC(=O)O)C(=O)O (stereo not drawn) [alpha-aminoadipic acid - 9, alpha-aminoadipic acid]	33%	33%	+	+		
O=C(O)C(O)CO (stereo not drawn) [Glycerate - 9, Glycerate]	−6%	−6%	−	−		
N[C@@H](CCCCN[C@@H](CCC(=O)O)C(=O)O)C(=O)O [Saccharopine - 35, Saccharopine]	−1%	−1%	−	−		

Molecule	% change in ALS [1]	% change in ALS [2]	Increase (+) or Decrease (−) in ALS [3]	Increase (+) or Decrease (−) in ALS [4]	% change in ALS (human, in vivo)	Increase (+) or Decrease (−) in ALS (human, in vivo)
O=C1COC(=O)C1 [Tetronic acid - 9, Tetronic acid]	−3%	−3%	−	−		
O=C1O[C@@H]([C@H](O)CO)[C@@H](O)[C@H]1O [Gulono-1-4-lactone - 9, Gulono-1-4-lactone]	0%	0%				
CC(=O)Nc1ccc(OS(=O)(=O)O)cc1 [4-acetominophen sulfate]	5%	5%	+	+		
O=C(O)CCCC(=O)O [Pentanedicic acid - 9, Pentanedicic acid]	1%			+		
CC(=O)N[C@@H](CC(=O)O)C(=O)O [n-acetyl-L-aspartic acid]	−9%	−9%	−	−		
Tartarate [Tartarate - 9]	0%	0%				
CC(O)C(=O)O (stereo not drawn) [Metabolite - 2694 retired: lactate - 35]		14%	+			
CC(=O)N[C@@H](C)C(=O)O [N-acetyl-L-alanine - 35, N-acetyl-L-alanine]	−12%	−12%	−	−		
O=C(O)Cc1c[nH]c2ccc(O)cc12 [5-hydroxy-1H-indole-3-acetic acid - 9, 5-hydroxy-1H-indole-3-acetic acid]	−15%	−15%	−	−		
O=c1[nH]c(=O)c2[nH]cnc2[nH]1 [Xanthine - 35, Xanthine]	−1%	−1%	−	−		
CCCCCCCCCCCC(=O)O [n-dodecanoate - 9, n-dodecanoate]	−2%	−2%	−	−		
NCCc1c[nH]cn1 [Histamine - 35, Histamine]	19%	19%	+	+		
N[C@@H](Cc1c[nH]c2ccccc12)C(=O)O [Tryptophan - 35, Tryptophan]					15%	+
O=C(O)[C@@H]1CCCN1 [Praline - 35, Praline]	156%	156%	+	+		
O=P(O)(O)OC(CO)CO		16%	+			
CCCC(=O)O [Butanoic acid - 9, Butanoic acid]	18%	18%	+	+		
O=C(O)C1CCCCN1 (racemic) [DL-pipecolic acid - 35, DL-pipecolic acid]	108%	108%	+	+		
O=C1CC(C(=O)O)NC(=O)N1 (stereo not drawn) [Hydroorotate - 9, Hydroorotate]	2%	2%	+	+		
O=P(O)(O)O [Phosphate - 9, Phosphate]	−7%	−7%	−	−		
O=C(O)C(O)Cc1ccc(O)cc1 (stereo not drawn) [Metabolite - 1343 retired: p-hydroxyphenyllactic acid - 35]	−21%	−21%	−	−		
O=C(O)[C@H](O)COP(=O)(O)O [3-phospho-d-glycerate - 35, 3-phospho-d-glycerate]	0%	0%				
NC(=O)NCCC[C@H](N)C(=O)O		267%	+			
Nc1nc2c(ncn2[C@@H]2O[C@H](CO)[C@@H](O)[C@H]2O)c(=O)[nH]1 [Guanosine - 35, Guanosine]	−3%	−3%	−	−		
